Results are given in words; binding and its absence hold for the method and conditions named. In cells and extracts the contact can be indirect. Some entries that bind do so weakly or less than the wild type. Sequences can lack the tags named with a protein.
What was measured:
[1] = biological target: LRRK2-d1 (a.a. 1–1,515) (mouse) (UniProt Q5S006); experiment: co-IP; HEK293 cells transfected with deletion constructs of LRRK2(G2019S) and E3 ubiquitin ligases; lysates (TNE buffer) immunoprecipitated with antibody against the V5 or HA epitope, immunoblot (Fig 3D)
[2] = biological target: LRRK2(D1994A), kinase-dead (V5-tagged) (mouse) (UniProt Q5S006); experiment: co-IP; HEK293 cells transfected with PERK and either MARCH5, MULAN or Parkin along with LRRK2 or mutant LRRK2; lysates immunoprecipitated with antibody against Myc or V5, immunoblot (Fig 6A)
[3] = biological target: LRRK2 (wild type, V5-tagged) (mouse) (UniProt Q5S006); experiment: as above
[4] = biological target: LRRK2(S1292A), phosphorylation-defective (V5-tagged) (mouse) (UniProt Q5S006); experiment: co-IP; HEK293 cells transfected with LRRK2(S1292A) or LRRK2(S1292D) and E3 ubiquitin ligases; lysates immunoprecipitated with antibody against Myc or V5 epitope, immunoblot (Fig 6C)

The chains behind the UniProt entries cited, without tags or fusion partners. Where a name states a change or a piece, a line headed by the entry shows the natural chain unless it says otherwise. Residues count along the entry.
UniProt Q5S006: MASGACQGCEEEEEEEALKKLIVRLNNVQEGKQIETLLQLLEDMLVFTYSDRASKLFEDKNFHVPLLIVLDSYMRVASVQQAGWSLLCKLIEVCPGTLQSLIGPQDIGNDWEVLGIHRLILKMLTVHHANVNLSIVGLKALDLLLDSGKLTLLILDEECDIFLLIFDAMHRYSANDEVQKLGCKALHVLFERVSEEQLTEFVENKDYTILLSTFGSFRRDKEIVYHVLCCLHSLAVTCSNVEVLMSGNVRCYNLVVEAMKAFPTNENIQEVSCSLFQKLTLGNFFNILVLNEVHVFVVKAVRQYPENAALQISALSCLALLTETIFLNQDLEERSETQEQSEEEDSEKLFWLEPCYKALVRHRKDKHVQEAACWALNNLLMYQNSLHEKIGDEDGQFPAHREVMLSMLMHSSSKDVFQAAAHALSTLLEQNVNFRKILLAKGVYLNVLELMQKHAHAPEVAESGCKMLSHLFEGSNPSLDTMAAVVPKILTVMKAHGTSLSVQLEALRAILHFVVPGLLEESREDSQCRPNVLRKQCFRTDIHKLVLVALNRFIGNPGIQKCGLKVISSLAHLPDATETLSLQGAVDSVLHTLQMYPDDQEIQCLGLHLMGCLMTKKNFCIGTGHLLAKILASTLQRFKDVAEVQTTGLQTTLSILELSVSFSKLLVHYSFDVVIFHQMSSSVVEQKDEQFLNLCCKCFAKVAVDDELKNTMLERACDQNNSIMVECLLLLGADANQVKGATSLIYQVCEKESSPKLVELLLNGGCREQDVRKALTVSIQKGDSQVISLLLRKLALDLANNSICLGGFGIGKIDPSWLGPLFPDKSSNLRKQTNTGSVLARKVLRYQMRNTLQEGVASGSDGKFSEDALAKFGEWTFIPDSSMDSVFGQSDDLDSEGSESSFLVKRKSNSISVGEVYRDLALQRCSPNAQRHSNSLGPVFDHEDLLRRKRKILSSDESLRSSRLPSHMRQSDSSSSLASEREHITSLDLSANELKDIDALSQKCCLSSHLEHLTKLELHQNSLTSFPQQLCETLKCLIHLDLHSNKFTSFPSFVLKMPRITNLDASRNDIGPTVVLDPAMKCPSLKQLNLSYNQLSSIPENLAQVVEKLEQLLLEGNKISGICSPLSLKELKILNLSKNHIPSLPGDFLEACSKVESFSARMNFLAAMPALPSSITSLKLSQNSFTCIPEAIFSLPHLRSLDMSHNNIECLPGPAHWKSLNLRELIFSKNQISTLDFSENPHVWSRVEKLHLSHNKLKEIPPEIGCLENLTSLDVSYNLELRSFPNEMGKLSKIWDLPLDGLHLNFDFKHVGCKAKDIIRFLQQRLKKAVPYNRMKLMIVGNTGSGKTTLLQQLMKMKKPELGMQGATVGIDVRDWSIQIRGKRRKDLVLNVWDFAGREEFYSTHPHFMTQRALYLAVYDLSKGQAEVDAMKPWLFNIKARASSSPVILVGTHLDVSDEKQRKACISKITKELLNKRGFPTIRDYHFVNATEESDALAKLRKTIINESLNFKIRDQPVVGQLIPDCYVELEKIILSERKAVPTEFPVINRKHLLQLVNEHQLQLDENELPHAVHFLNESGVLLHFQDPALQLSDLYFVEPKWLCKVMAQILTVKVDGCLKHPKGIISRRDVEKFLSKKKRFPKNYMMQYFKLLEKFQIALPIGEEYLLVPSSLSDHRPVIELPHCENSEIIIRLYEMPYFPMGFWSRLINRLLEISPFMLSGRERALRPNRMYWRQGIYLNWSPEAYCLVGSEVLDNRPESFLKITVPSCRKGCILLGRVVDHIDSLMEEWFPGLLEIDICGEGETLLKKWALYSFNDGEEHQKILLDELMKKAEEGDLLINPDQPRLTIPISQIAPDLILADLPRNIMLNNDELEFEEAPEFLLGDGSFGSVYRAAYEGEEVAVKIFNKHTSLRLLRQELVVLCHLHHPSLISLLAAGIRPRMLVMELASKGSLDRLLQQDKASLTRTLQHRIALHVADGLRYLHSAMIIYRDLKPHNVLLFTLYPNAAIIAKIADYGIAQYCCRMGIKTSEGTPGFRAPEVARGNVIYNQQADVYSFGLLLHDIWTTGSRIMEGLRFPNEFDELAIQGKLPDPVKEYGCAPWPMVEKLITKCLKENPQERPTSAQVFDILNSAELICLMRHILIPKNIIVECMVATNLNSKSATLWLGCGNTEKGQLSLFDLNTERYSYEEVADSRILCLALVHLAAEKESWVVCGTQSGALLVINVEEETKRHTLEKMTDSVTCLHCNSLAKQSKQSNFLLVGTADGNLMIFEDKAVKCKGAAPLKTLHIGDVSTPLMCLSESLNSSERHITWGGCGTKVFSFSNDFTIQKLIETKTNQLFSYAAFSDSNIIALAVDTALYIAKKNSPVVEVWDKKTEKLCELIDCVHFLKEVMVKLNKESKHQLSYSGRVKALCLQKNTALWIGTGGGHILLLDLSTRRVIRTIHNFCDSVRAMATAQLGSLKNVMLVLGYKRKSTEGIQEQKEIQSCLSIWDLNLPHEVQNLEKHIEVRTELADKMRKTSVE
LRRK2-d1 (a.a. 1–1,515): residues 1-1515 of Q5S006

Measured: binding

B1: MULAN (Myc-tagged) (enzyme, UniProt Q8VCM5 1-352)
chain: MESGSRPSLGQVILLGTSSMVTAVLYSIYRQKAQVAQELKGAKKIHLGEDLKGILSEAPGKCVPYAVIEGAVRSVKETLNSQFVENCKGVIQRLSLQEHKMVWNRTTHLWNDYSKIIHQRTNTVPFDLVPHEDGVAVSVRVLKPLDSVDLGLETVYEKFHPSVQSFTDAIGHYISGERPKGIQETEEMLKVGATLTGIGELVLDNNAVRLQPPKQGMQYYLSSQDFDSLLHRQESSVRLWKILVLVFGFATCATLFFILRKQYLHRQERLRQQQLQEEFLEHEAQLLSQASPEDRESLKSACVVCLSNFKSCVFLECGHVCSCRQCYLALPEPKRCPICRREITRVIPLYNS
binds: [1] | [2] | [3] | [4]
